One substance from PMC4980769 (2016) can be followed below.

The assay concerns the target T1, AgrA full length (AgrAFL) (Staphylococcus aureus) (UniProt P0A0I7).
T1 sequence: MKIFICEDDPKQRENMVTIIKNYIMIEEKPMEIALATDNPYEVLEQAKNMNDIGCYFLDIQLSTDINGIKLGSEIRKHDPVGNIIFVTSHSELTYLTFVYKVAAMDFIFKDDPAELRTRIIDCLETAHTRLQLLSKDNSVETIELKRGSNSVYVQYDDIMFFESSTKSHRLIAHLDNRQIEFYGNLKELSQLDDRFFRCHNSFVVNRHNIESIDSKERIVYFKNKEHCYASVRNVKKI
As to the kind of experiment: BLI; AgrAFL (ligand) immobilised on amine reactive 2nd generation (AR2G) tips; AgrC proteins as analytes at different concentrations; 20 mM HEPES pH 7.6, 200 mM KCl, 2% glycerol; AgrC proteins incubated separately with 5 uM DTT and H2O2; Octet Data Analysis Software v 8.0; both purified. (Biolayer interferometry detects binding as a change in optical thickness at a sensor tip.)

These are yes or no findings as the source states them, for the method shown. Binding calls can cover weak binding; strength is not graded here.

As for “recombinant wild-type AgrC (cytosolic domain) (Staphylococcus aureus) (domain or fragment)”, the binding result is on record as “binds”.
